Measurements: paper PMC10289295
No constants are given. Whether binding was seen depends on the method and setting. Binding seen in cells or lysates may run through a third protein. Binding can be weak; no strength is given.

Key:
Flag-Tet2 = assay: co-IP; lysates of HEK293 cells transfected with vector or Flag-Tet for 48 h; anti-Flag magnetic beads, 6-12 h at 4°C; western blot
Flag-Tet1 = assay: as above

B1: Non-POU domain-containing octamer-binding (NONO) protein, in HEK293 cells (protein, UniProt Q15233 1-471)
chain: MQSNKTFNLEKQNHTPRKHHQHHHQQQHHQQQQQQPPPPPIPANGQQASSQNEGLTIDLKNFRKPGEKTFTQRSRLFVGNLPPDITEEEMRKLFEKYGKAGEVFIHKDKGFGFIRLETRTLAEIAKVELDNMPLRGKQLRVRFACHSASLTVRNLPQYVSNELLEEAFSVFGQVERAVVIVDDRGRPSGKGIVEFSGKPAARKALDRCSEGSFLLTTFPRPVTVEPMDQLDDEEGLPEKLVIKNQQFHKEREQPPRFAQPGSFEYEYAMRWKALIEMEKQQQDQVDRNIKEAREKLEMEMEAARHEHQVMLMRQDLMRRQEELRRMEELHNQEVQKRKQLELRQEEERRRREEEMRRQQEEMMRRQQEGFKGTFPDAREQEIRMGQMAMGGAMGINNRGAMPPAPVPAGTPAPPGPATMMPDGTLGLTPPTTERFGQAATMEGIGAIGGTPPAFNRAAPGAEFAPNKRRRY
B1 was tested, and the binding (Flag-Tet2) was “binds” and the binding (Flag-Tet1) was “binds”.
